Some results were stated once for a whole list of compounds, not compound by compound.
Molecular target: T1, Aβ40 aggregates (Homo sapiens, UniProt P05067)
T1 construct: agglomerated Aβ40 peptide (10 μM, 35° C., agglomerated in PBS buffer for 3 days.)
Assay: In vitro fluorescence measurement before and after mixing with agglomerated Aβ40 peptide
Format: binding
Details: before vs after mixing with agglomerated Aβ40 peptide (10 μM)

Sequences of proteins named here, by UniProt entry; tags and fusion partners are left off. Residues count along the entry.
UniProt P05067, 672-711 limits assumed: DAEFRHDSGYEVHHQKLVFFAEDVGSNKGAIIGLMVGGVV

Increase in the fluorescence intensity in the emission spectrum, ≥ 10 times:
COc1cccc(/C=C/n2ncc(Cl)c(Cl)c2=O)c1OC [Compound 19, (E)-4,5-dichloro-2-(2,3-dimethoxystyryl)pyridazine-3(2H)-one]
COc1ccc(/C=C/n2ncc(Cl)c(Cl)c2=O)c(OC)c1OC [Compound 25, (E)-4,5-dichloro-2-(2,3,4-trimethoxystyryl)pyridazine-3(2H)-one]
COc1cc(OC)c(/C=C/n2ncc(Cl)c(Cl)c2=O)c(OC)c1 [Compound 27, (E)-4,5-dichloro-2-(2,4,6-trimethoxystyryl)pyridazine-3(2H)-one]
CN(C)c1ccc(/C=C/n2ncc(Cl)c(Cl)c2=O)cc1 [Compound 14]
COc1cccc(/C=C/n2ncc(Cl)c(Cl)c2=O)c1 [Compound 17, (E)-4,5-dichloro-2-(3-methoxystyryl)pyridazine-3(2H)-one]
COc1ccc(/C=C/n2ncc(Cl)c(Cl)c2=O)c(OC)c1 [Compound 20, (E)-4,5-dichloro-2-(2,4-dimethoxystyryl)pyridazine-3(2H)-one]
Nc1ccc(/C=C/n2ncc(Cl)c(Cl)c2=O)cc1 [Compound 15, (E)-4,5-dichloro-2-(4-aminostyryl)pyridazine-3(2H)-one]
COc1ccc(/C=C/n2ncc(Cl)c(Cl)c2=O)cc1 [Compound 18, (E)-4,5-dichloro-2-(4-methoxystyryl)pyridazine-3(2H)-one]
COc1cc(/C=C/n2ncc(Cl)c(Cl)c2=O)cc(OC)c1OC [Compound 28]

Source: patent publication US8961937B2 (Korea Atomic Energy Research Institute, priority 2012, dated 2015)
